Experimental data reported in patent US20220213135A1, “DERIVATIVES OF GLYCERO-MANNO-HEPTOSE PHOSPHATE AND THEIR USE IN MODULATING AN IMMUNE RESPONSE” (Shanghai Yao Yuan Biotechnology Co., Ltd., priority 2019, published 2022).
At least one compound was matched to its structure with a doubt left.

System: chemokine and cytokine expression in liver cells
Experiment: Chemokine and cytokine gene expression by qPCR in liver of mice after oral gavage of HMP1BP derivatives
Type: in vivo, mouse
Conditions: 1 mg/kg oral gavage, 4 hours (FIG. 5B), compared with Compounds 11, 13-14 at 0.1 mg/kg
Method: FIG. 5A-B. Oral administration of HMP1BP derivatives activates chemokine and cytokine expression in liver cells. 8 week old C57 female mice were administered saline or the indicated compounds by oral gavage, Compounds 2-7 (1 mg·kg) (A) or compounds 9, 10 (1 mg/kg), 11, 13 and 14 (0.1 mg/kg) (B) were tested. Four hours after administration of saline or compound, organs were dissected and gene expression was analyzed by qPCR for CCL2, CCL7, CXCL1, CXCL10, IFNb, IL1b, IL6, and TNFa (A) or CCL2 and CCL7 (B).
Several additional Compound 1 derivatives were tested for cytokine and chemokine gene induction in hepatocytes. […] Mice were treated as described above. Briefly, 8 week-old C57 female mice were separately administered (1 mg/kg) either one of Compounds 2-7 or a saline/DMSO control by oral gavage and 4 hours later the livers were dissected and gene expression analyzed by qPCR. The gene expression results were normalized to GADPH expression. […] The additional genes tested in this experiment are: CXCL1, encoding C—X—C motif chemokine ligand 1; CXCL10, encoding C—X—C motif chemokine ligand 10; IFNb, encoding interferon beta; IL-1b, encoding interleukin 1 beta; IL6, encoding interleukin 6; and TNFα, encoding tumor necrosis factor alpha. […] All the derivatives induced CCL2 and CCL7 more than 20-fold above the control. […]

COC[C@H](F)C1O[C@@H](O[P@@](=O)(N[C@@H](C)C(=O)OC(C)C)Oc2ccccc2)C(OC(C)=O)C(OC(C)=O)[C@@H]1OC(C)=O (stereo in doubt) [Compound 10, (2S,3S,4S,5S)-2-((S)-1-fluoro-2-methoxyethyl)-6-(((((S)-1-isopropoxy-1-oxopropan-2-yl)amino)(phenoxy)phosphoryl)oxy)tetrahydro-2H-pyran-3,4,5-triyl triacetate]
CCL2 gene expression: strong induction of CCL2 gene expression
